Test results: doi:10.1101/384354
Results are given in words; binding and its absence hold for the method and conditions named. In cells and extracts the contact can be indirect. Some binding calls cover weakened binding; strength is not graded here. For some assays here: Sequences can lack the tags named with a protein.

Protein sequences, listed by entry. Tags and fused reporters are not part of them.
UniProt Q9CWH6: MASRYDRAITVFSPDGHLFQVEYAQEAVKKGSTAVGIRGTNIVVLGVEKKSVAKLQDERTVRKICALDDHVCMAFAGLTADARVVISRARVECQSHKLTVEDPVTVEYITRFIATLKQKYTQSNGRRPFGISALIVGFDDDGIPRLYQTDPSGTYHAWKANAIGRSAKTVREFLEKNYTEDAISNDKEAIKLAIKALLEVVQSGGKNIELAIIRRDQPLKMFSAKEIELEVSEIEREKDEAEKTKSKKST
UniProt Q3TUU5: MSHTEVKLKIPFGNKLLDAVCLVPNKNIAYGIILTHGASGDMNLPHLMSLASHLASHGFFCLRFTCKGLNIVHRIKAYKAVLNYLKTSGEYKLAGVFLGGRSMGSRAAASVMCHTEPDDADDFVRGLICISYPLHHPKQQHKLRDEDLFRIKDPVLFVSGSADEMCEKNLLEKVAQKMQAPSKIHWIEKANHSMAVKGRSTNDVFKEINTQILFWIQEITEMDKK
UniProt P11440: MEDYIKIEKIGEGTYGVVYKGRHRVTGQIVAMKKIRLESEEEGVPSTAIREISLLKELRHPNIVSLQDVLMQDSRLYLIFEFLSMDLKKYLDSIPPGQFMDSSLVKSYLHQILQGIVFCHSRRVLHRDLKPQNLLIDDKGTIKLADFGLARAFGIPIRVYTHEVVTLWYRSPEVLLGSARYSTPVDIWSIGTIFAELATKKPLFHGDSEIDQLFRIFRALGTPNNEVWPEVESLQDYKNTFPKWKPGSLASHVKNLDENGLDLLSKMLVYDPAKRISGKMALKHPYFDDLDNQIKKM
UniProt Q9JMB7: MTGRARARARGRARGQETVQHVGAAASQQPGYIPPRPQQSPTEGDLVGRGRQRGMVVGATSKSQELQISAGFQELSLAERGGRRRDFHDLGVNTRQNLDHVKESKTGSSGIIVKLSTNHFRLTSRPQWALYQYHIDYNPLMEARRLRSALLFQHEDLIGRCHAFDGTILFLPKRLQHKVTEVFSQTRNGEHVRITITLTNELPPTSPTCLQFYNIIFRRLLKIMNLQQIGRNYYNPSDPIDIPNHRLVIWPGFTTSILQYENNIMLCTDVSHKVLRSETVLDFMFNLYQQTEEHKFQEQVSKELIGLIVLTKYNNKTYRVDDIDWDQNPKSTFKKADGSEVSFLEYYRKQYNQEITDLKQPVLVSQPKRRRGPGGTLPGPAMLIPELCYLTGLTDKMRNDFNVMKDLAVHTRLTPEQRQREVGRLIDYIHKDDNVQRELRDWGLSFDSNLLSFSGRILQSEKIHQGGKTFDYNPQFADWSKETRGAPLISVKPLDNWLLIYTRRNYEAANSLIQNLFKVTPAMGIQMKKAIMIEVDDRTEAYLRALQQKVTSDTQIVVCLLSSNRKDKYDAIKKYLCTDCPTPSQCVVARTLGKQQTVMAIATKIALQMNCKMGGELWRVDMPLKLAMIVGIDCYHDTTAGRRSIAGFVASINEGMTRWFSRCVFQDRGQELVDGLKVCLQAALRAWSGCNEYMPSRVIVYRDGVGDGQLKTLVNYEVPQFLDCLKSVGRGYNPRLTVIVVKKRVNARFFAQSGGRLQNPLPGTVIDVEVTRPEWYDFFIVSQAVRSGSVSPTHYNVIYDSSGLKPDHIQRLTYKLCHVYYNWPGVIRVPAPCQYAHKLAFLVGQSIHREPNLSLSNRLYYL

B1: GFP-SYCE1 (protein, UniProt Q9D495 1-329)
chain: MATRPQPLGMEPEGSADLLHGPEGARGQYGSTQKIEDLMDMVKKLQKVGSLEPRIEVLINRINEVQQAKKKASEELGEAQTVWDNLQKELDLLREEKVRLKDILNRKEETLRIMQLHCQEKESEAQRKHSMLQECKERISFLNSQIDKEKAKLRKLRLDFEEHLETLMSQHKDTLEFHKPEHLTKEMCVLDSSKEQLLKEEKLMKVKLEDVRQRLCALGGPEGSSSLIEGLFLRSHEAAAAMQMFKDENKKAEEFLEAAAQQHEQLQQRCHQLQQKRQRLKEELEKHGVQILAHSTQNEEDSSWRMASPKPVEVHEETAQDQERPSSRT
B2: GFP-SYCE3 (protein, UniProt B5KM66 1-88)
chain: MADSDPGERSYDNMLKMLSDLNKDLEKLLEEMEKISVQATWMAYDMVVMRTNPTLAESMRRLEDAFLNCKEEMEKNWQELLTETKRKQ
B3: GFP-TEX12 (protein, UniProt Q9CR81 1-123)
chain: MMANHLVKPDSRNCKRARELEPQVSDSPQVSSLGKSESSLSEASGLFYKEEALEKDLSDMSKEINLMLSTYAKILSERAAVDASYIDEIDGLFKEANIIENFLVQKREFLKQRFTVITNTLHK
B4: GFP-SYCE2 (protein, UniProt Q505B8 1-171)
chain: MERHGVAAPPVELKDQEPPAIVESGEHRQSENHEETPGSVAPSASCQLPGPFSSLDSSIETLKKKAQELIENINESRQKDHALMTNFRDSLKMKVSDLTEKLEERMYQVYSHHSKIIQERLQEFTQKMAKINHLEMELKQVCQTVETVYKDLCVQSEVPTCEEQNYKDGEC
B5: Flag-SIX6OS1 (protein, UniProt Q9CTN5 1-574)
chain: MNDNLFVSLDRLLLEFVFQYEQDISIKEDTIQRINKCLESIKENKANVSKLREAINKVDEDIAFHYKHSKEIKDSCSNWKPTCDVFHKHEDYIKDQLTAYQETNEKDKKMYHDYICQYEDVLKQYQLKYSETRFSCKYYEKKKEHEEIKNRVLACTEQLQLNETILMKFLVPAPFPSLTKWTLYVVNLRYRTQDILKRANNFTKRSFELEKEADDMEIEINSLNKMARLFESKTFSEALDEKNKNTEKRKEFEERIFEKDEQVSNRSSQNSQLLLPCESQKFVRNMNSSEARVTDKKEESSANQSKFVRSDVRQKENNPQIFNDSGMDSNSKSSHIPAVKSSQGFMQFRLNQPNYNQRIEKEHIDAECGDKETVRQVRESKCSTQALYIEHFGKSIENNSVEEERDENFPQTPETPSFLRTPEALKTPESMEKMQFPKSPFFEITKNATSEGHKQKDSPGFSFLMSYTSRSPGLNLFDSSVSDSEISSDQFNEHYSAVNLNPSSSQQGIGNLFGKSEGEDAFTFSFSSDSSHTFGAGKDDFSFPFSFEQDPSTMTSSSSKDFSSSQNKTQFMFF
B6: TRIP13-GFP (protein, UniProt Q3UA06 1-432)
chain: MDEAVGDLKQALPCVAESPAVHVEVLQRSGSTAKKEDIKSSVYRLLNRHNIVFGDYVWTEFDDPFLSRNVQSVSIVDTELKAKDPQPIDLSACTIALHIFQLNEEGPSSENLDEETENIIAASHWVLPAAEFHGLWDSLVYDVEVKSHLLDYVMTTVLFSDKNVDSNLITWNRVVLLHGPPGTGKTSLCKALAQKLTIRLSSRYRYGQLIEINSHSLFSKWFSESGKLVTKMFQKIQDLIDDKEALVFVLIDEVESLTAARNACRAGAEPSDAIRVVNAVLTQIDQIKRHSNVVILTTSNITEKIDVAFVDRADIKQYIGPPSAAAIFKIYLSCLEELMKCQIIYPRQQLLTLRELEMIGFIENNVSKLSLLLSEISRKSEGLSGRVLRKLPFLAHALYIQAPSVTIEGFLQALSLAVDKQFEEKKKLSAYV
B7: GFP-SYCP1 (protein, UniProt Q62209 1-993)
chain: MEKQKPFTLFVPPRLSSSQVSAVKPQTAGGDSNYFKTANKCTEGDFGVPFTMSSRENIDKDPAFQKLSILPMLEQVANSGSCHYQEGVNDSDFENSEPMSRLYSKLYKEAEKIKKWKVSIESELKQKENKLQENRKIIEAQRKAIQELQFENEKVSLKLEEEIQENKDLIKENNATIHWCNLLKETCARSAEKTNKYEYEREETRQVYVDLNSNIEKMILAFEELRVQAENARLEMHFKLKEDHEKIQHLEEEYQKEVNNKENQVSELLIQSAEKENKMKDLTFLLEESRDKANQLEEKTKLQDENLKELSEKKDHLTSELEDIKMSMQRSMSTQKALEEDLQIATKTISQLTEVKEAQMEELNKAKTTHSFVVTELKATTCTLEELLRTEQQRLEKNEDQLKLITVELQKKSNELEEMTKFKNNKEVELEELKNILAEDQKLLDEKKQVEKLAEELQEKEQELTFLLETREKEVHDLQEQVTVTKTSEQHYLKQVEEMKTELEKEKLKNTELTASCDMLLLENKKFVQEASDMALELKKHQEDIINCKKQEERLLKQIENLEEKEMHLRDELESVRKEFIQQGDEVKCKLDKSEENARSIECEVLKKEKQMKILESKCNNLKKQVENKSKNIEELHQENKTLKKKSSAEIKQLNAYEIKVSKLELELESTKQRFEEMTNNYQKEIENKKISEGKLLGEVEKAKATVDEAVKLQKEIDLRCQHKIAEMVALMEKHKHQYDKIVEERDSELGLYKNREQEQSSAKIALETELSNIRNELVSLKKQLEIEKEEKEKLKMAKENTAILKDKKDKKIQASLLESPEATSWKFDSKTTPSQNISRLSSSMDSGKSKDNRDNLRASAKSILPTTVTKEYTVKTPTKKSIYQRENKYIPTGGSNKKRKTAFEFDVNSDSSETADLLSLVSEEDVSNRLYDNNPPDSHLLVKTPKQTPLSLSTPASFMKFGSLKKMREDRWTTIAKIDRKRRLKEAEKLFS

target: Flag-PSMA8 (mouse) (UniProt Q9CWH6); experiment: co-IP

| binding | Molecule |
| --- | --- |
| no binding | B1 |
| binds | B2 |
| no binding | B3 |
| no binding | B4 |
| binds | B5 |
| binds | B6 |
| binds | B7 |

target: Flag-PSMA8 (mouse) (UniProt Q9CWH6); experiment: co-IP; remark: another data set of the same source

| binding | Molecule |
| --- | --- |
| no binding | GFP-TEX30 (from UniProt Q3TUU5 1-225) |
| binds | GFP-CDK1 (from UniProt P11440 1-297) (enzyme) |
| no binding | GFP-PIWIL1 (from UniProt Q9JMB7 1-862) |

target: GFP-CDK1 (mouse) (UniProt P11440); experiment: co-IP

| binding | Molecule |
| --- | --- |
| binds | Flag-PSMA8 (from UniProt Q9CWH6 1-250) |
